According to publication PMC6851102:
No constants are given. Whether binding was seen depends on the method and setting. For some assays here: In cells and extracts the contact can be indirect. Some results given as binding are weak or reduced against the parent protein; the word gives no strength. For some assays here: Sequences can lack the tags named with a protein. One block for each substance: values may come before it.

Protein sequences, listed by entry. Tags and fused reporters are not part of them.
UniProt Q14839: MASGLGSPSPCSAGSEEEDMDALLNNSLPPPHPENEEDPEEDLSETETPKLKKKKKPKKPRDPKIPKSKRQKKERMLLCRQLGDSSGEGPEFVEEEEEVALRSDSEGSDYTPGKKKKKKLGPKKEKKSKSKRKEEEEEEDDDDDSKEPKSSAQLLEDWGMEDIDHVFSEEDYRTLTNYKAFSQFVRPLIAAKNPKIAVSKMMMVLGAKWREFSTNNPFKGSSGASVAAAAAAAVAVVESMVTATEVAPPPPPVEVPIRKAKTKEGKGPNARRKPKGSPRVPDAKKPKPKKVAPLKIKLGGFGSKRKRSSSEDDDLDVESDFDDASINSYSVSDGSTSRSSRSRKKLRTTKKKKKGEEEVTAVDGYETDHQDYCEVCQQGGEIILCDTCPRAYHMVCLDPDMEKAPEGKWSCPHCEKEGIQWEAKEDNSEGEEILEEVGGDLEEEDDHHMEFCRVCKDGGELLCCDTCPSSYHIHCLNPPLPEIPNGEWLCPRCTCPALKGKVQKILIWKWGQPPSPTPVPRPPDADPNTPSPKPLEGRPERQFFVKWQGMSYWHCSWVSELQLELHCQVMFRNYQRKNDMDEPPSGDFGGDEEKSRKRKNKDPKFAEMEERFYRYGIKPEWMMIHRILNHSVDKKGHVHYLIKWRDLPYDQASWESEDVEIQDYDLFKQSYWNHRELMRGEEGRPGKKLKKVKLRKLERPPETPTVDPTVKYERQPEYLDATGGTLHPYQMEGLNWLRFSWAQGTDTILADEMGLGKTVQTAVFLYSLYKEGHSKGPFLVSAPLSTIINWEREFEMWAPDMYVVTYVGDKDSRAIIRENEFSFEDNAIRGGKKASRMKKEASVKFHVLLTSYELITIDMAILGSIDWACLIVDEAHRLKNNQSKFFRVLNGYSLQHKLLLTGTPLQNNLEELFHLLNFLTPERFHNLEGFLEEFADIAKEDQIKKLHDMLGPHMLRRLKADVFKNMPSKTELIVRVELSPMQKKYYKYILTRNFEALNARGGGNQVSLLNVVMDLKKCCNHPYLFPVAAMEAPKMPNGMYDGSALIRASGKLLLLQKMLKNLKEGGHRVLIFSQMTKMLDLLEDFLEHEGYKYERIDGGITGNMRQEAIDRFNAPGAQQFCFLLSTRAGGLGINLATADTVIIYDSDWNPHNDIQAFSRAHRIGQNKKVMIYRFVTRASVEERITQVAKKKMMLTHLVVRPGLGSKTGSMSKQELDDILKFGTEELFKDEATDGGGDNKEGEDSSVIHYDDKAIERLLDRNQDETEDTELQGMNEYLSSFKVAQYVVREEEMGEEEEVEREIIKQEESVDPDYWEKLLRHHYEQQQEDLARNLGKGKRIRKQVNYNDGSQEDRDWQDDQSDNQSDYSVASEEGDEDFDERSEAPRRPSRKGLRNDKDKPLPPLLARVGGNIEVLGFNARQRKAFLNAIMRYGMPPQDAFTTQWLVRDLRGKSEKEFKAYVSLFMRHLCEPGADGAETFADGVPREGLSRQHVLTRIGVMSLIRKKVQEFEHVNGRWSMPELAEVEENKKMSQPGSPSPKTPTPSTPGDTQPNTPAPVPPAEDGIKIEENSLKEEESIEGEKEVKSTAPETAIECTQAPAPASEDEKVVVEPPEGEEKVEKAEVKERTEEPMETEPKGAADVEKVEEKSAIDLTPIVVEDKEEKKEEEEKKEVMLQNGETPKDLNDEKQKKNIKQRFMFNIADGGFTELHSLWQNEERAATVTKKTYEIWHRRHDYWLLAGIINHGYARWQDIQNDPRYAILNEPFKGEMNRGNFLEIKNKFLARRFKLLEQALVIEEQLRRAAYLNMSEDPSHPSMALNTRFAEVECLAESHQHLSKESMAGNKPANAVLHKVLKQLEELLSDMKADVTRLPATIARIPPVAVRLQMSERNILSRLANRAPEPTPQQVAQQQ
UniProt Q92769: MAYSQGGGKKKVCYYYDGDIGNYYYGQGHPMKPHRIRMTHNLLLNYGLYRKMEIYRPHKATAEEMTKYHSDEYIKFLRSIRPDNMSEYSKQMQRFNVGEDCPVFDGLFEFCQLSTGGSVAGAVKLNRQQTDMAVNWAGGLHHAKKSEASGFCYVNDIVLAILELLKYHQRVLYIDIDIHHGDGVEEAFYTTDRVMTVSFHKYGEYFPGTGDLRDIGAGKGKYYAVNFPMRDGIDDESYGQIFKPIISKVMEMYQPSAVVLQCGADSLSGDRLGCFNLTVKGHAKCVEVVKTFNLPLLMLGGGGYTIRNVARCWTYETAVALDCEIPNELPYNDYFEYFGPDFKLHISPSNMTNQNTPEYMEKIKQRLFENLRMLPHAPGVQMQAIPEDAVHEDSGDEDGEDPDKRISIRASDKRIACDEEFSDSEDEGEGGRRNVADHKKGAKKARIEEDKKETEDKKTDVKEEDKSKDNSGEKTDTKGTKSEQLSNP
UniProt Q13547: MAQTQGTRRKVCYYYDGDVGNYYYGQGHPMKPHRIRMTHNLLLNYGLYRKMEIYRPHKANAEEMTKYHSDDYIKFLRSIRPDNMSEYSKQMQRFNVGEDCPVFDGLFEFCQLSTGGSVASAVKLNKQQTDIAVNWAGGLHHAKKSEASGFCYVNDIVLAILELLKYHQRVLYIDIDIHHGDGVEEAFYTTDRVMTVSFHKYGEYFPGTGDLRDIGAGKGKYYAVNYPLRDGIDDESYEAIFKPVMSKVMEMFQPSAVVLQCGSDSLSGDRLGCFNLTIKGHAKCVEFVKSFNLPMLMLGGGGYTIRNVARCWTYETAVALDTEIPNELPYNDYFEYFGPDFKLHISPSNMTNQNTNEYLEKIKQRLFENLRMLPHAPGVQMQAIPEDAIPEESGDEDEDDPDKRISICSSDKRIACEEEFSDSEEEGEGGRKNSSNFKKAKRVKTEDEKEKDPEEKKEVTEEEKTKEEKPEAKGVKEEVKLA
UniProt O09106: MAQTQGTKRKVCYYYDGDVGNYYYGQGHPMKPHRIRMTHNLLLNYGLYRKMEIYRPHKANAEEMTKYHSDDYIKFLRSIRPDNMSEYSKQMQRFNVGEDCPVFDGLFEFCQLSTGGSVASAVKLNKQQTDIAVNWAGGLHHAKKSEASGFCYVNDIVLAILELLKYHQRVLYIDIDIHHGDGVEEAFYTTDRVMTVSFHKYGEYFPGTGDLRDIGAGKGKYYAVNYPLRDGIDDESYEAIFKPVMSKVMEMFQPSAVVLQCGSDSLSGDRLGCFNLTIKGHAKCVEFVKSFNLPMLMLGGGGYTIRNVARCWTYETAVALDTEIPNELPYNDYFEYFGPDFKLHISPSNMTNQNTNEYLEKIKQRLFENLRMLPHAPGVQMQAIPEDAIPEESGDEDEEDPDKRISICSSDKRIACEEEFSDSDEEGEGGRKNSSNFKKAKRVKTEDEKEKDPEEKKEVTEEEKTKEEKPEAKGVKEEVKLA
UniProt Q8K4B0: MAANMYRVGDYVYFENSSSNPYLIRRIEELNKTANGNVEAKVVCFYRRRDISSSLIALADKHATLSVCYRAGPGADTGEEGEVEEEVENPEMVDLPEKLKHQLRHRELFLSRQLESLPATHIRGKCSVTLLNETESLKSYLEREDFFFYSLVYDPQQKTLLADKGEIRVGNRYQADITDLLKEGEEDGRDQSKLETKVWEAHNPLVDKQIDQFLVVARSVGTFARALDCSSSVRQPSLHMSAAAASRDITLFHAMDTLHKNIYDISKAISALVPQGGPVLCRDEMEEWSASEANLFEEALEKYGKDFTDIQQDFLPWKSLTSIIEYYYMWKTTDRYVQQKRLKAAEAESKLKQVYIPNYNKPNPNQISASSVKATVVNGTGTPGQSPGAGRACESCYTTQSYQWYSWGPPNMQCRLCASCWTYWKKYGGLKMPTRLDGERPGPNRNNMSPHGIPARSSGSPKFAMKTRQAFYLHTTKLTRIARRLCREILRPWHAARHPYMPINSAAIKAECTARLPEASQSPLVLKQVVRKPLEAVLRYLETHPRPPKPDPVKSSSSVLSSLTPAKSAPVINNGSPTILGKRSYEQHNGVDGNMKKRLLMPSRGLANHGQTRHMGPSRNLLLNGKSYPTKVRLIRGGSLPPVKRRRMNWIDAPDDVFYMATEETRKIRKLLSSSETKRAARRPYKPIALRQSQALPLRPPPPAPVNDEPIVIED

What was measured:
[1] = target: T1, ZEB1, endogenous in human NSCLC cell lines (human (endogenous in H157 and H1299)) (UniProt P37275); experiment: SEC; nuclear lysates of H157 and 344SQ on a Superose column, 60 fractions, SDS-PAGE and immunoblot; co-elution in fractions 25-35, above 669 kDa
T1 sequence: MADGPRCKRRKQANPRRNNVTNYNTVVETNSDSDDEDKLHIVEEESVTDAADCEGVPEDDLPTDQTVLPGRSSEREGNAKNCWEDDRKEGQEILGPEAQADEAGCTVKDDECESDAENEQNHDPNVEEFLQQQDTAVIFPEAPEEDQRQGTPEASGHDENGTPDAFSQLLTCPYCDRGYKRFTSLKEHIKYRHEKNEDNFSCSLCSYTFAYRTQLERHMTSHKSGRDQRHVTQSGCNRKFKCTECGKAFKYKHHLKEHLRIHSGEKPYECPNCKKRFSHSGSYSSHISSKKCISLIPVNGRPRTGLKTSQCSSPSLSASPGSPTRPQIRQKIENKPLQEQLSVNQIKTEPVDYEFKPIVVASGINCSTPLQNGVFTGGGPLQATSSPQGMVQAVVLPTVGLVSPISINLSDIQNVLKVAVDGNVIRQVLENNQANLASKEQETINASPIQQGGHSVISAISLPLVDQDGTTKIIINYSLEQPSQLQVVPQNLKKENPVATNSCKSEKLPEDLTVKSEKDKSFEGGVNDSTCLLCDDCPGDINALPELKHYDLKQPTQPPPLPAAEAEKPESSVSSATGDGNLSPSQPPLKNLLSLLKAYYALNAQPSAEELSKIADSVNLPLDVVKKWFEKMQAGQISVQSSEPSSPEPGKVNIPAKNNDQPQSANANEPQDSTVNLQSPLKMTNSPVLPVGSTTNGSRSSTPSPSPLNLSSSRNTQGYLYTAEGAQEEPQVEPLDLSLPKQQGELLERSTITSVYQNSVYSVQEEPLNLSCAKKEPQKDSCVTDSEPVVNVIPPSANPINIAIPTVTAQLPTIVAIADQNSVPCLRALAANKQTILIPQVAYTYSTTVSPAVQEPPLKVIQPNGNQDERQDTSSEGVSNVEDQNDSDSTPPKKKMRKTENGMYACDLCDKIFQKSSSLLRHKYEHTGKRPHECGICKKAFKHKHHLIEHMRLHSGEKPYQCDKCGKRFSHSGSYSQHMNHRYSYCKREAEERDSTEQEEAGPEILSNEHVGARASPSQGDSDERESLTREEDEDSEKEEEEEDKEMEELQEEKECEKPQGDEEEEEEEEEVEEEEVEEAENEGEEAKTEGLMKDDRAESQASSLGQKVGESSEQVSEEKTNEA

[2] = target: T1, ZEB1, endogenous in human NSCLC cell lines (human (endogenous in H157 and H1299)); experiment: proximity ligation; endogenous proteins in fixed, permeabilised H157, H1299, 344SQ and 531LN2 cells; primary antibodies to ZEB1 and a NuRD member; Duolink In Situ Red Starter Mouse/Rabbit kit; confocal microscopy
[3] = target: T2, FlagBirA*-ZEB1 (human ZEB1 with an N-terminal FlagBirA* tag) (human) (UniProt P37275); experiment: co-IP; HEK293 Flp-In cells expressing FlagBirA*-ZEB1; 500 ug crude lysate with primary antibody overnight at 4 °C, Protein A/G PLUS-Agarose, washes with PBS and 50 mM Tris pH 7.4, 150 mM NaCl, 0.1% NP-40; Western blot
T2 sequence: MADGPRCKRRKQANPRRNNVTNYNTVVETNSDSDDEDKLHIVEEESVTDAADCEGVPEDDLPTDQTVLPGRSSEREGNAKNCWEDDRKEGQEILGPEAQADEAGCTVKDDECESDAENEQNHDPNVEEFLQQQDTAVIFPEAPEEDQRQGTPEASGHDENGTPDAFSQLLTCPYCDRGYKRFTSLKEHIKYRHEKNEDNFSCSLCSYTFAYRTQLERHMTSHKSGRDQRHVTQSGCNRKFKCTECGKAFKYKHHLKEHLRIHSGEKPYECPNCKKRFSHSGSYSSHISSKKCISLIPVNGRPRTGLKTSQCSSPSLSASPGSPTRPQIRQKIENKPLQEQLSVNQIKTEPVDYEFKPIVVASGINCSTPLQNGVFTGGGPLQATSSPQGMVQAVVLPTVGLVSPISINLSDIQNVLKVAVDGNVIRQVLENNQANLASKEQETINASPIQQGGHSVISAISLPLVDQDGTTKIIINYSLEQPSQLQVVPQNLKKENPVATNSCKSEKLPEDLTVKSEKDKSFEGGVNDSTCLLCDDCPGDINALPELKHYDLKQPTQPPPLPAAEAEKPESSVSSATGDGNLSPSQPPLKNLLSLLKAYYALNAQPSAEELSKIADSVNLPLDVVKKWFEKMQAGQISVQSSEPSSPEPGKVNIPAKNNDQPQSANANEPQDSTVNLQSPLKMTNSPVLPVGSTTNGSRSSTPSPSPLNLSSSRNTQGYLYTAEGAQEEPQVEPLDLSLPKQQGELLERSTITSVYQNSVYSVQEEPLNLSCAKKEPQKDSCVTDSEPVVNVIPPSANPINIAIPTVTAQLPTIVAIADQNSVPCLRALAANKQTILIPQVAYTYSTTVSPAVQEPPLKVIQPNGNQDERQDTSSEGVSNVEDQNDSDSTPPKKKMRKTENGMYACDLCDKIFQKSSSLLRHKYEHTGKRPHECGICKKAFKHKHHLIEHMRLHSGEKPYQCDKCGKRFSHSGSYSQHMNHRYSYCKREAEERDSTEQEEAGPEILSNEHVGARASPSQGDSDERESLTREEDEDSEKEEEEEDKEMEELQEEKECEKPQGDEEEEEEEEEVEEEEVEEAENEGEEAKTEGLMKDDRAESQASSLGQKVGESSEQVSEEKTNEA

[4] = target: T3, GFP-conjugated ZEB1 expressed in 344SQ (UniProt P37275); experiment: co-IP; 344SQ murine cells expressing GFP-ZEB1; 500 ug crude lysate with primary antibody overnight at 4 °C, Protein A/G PLUS-Agarose; Western blot
T3 sequence: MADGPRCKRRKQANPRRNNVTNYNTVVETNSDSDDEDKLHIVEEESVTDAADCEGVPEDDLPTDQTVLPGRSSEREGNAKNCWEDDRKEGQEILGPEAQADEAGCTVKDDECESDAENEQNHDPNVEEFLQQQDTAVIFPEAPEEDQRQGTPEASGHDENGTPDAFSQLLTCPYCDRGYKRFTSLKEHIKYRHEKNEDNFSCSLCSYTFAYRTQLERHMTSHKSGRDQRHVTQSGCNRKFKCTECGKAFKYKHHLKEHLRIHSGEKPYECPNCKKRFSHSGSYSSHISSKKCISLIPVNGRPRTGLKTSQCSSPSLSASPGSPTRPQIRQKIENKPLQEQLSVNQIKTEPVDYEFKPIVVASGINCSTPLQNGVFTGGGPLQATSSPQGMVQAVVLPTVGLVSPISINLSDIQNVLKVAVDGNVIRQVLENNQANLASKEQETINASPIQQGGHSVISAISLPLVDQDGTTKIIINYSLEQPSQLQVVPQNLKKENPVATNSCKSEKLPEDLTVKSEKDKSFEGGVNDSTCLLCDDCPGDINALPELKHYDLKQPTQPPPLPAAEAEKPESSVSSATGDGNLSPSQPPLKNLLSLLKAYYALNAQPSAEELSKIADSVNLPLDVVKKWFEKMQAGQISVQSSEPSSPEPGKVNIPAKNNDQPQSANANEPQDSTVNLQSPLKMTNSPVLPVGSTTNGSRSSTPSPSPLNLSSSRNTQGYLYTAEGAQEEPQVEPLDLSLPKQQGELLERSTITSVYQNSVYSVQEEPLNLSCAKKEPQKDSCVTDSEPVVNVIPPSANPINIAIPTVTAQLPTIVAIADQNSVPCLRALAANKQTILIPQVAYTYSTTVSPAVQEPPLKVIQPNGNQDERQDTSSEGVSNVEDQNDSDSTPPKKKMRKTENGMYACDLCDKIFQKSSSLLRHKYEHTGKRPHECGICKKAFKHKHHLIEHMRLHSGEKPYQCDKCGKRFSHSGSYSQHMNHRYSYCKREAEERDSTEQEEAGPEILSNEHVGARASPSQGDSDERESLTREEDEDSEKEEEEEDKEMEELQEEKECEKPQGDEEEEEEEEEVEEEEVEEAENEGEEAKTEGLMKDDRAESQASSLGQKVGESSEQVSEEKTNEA

Substance: CHD4 (chromodomain helicase DNA-binding protein 4), human, endogenous (from UniProt Q14839 1-1912)
binding [1]: binds | binding [2]: binds

Substance: HDAC2 (histone deacetylase 2), human, endogenous (from UniProt Q92769 1-488)
binding [2]: binds

The next lines start with the values.

binding [1]: binds | binding [2]: binds | binding [3]: binds
Substance: HDAC1 (histone deacetylase 1), human, endogenous (from UniProt Q13547 1-482)

binding [4]: binds
Substance: HDAC1, murine, endogenous (from UniProt O09106 1-482)

binding [4]: binds
Substance: MTA1, murine, endogenous (from UniProt Q8K4B0 1-715)
